# Measurements: the supplement of paper PMC8728848
# Some of the results follow.
# How the values were obtained:
# Test in all cases: glycan array binding signal (z-score within array); higher = stronger binding
# Details in all cases: glycan notation: IUPAC condensed, linker removed
# [1] = target: Fuc(a1-2)[Gal(a1-3)]Gal(b1-4)GlcNAc(b1-2)Man(a1-3)[Fuc(a1-2)[Gal(a1-3)]Gal(b1-4)GlcNAc(b1-2)Man(a1-6)]Man(b1-4)GlcNAc(b1-4)GlcNAc
# Outline: (§1)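 The binding signal is a Z-score computed within each array. Data were drawn from 3228 arrays in the Consortium for Functional Glycomics database, restricted to those with a known protein sequence. Scores were averaged over arrays of the same protein sequence at different concentrations or buffers, and over linkers, and negative values can be taken as non-binding.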
# [2] = target: Fuc(a1-2)[Gal(a1-3)]Gal(b1-4)GlcNAc(b1-2)Man(a1-3)[Fuc(a1-2)[Gal(a1-3)]Gal(b1-4)GlcNAc(b1-2)Man(a1-6)]Man(b1-4)GlcNAc(b1-4)[Fuc(a1-6)]GlcNAc
# Outline: as §1
# [3] = target: Fuc(a1-2)[Gal(a1-3)]Gal(b1-4)GlcNAc(b1-3)GalNAc
# Outline: as §1
# [4] = target: Fuc(a1-2)[Gal(a1-3)]Gal(b1-4)GlcNAc(b1-3)[Fuc(a1-2)[Gal(a1-3)]Gal(b1-4)GlcNAc(b1-6)]GalNAc
# Outline: as §1
# [5] = target: Fuc(a1-2)[Gal(a1-3)]Gal(b1-4)GlcNAc(b1-6)GalNAc
# Outline: as §1
# [6] = target: Fuc(a1-2)[Gal(a1-3)]Gal(b1-4)[Fuc(a1-3)]Glc
# Outline: as §1
# [7] = target: Fuc(a1-2)[Gal(a1-3)]Gal(b1-4)[Fuc(a1-3)]GlcNAc
# Outline: as §1
# [8] = target: Fuc(a1-2)[Gal(a1-3)]Gal(b1-4)[Fuc(a1-3)]GlcNAc(b1-3)GalNAc
# Outline: as §1
# [9] = target: Fuc(a1-2)[Gal(a1-4)]Gal(b1-4)GlcNAc
# Outline: as §1
# [10] = target: Fuc(a1-2)[GalNAc(a1-3)]Gal
# Outline: as §1
# [11] = target: Fuc(a1-2)[GalNAc(a1-3)]Gal(b1-3)GalNAc(a1-3)[Fuc(a1-2)]Gal(b1-4)GlcNAc
# Outline: as §1
# [12] = target: Fuc(a1-2)[GalNAc(a1-3)]Gal(b1-3)GalNAc(b1-3)Gal(a1-4)Gal(b1-4)Glc
# Outline: as §1
# [13] = target: Fuc(a1-2)[GalNAc(a1-3)]Gal(b1-3)GlcNAc
# Outline: as §1
# [14] = target: Fuc(a1-2)[GalNAc(a1-3)]Gal(b1-3)GlcNAc(b1-2)Man(a1-3)[Fuc(a1-2)[GalNAc(a1-3)]Gal(b1-3)GlcNAc(b1-2)Man(a1-6)]Man(b1-4)GlcNAc(b1-4)GlcNAc
# Outline: as §1
# [15] = target: Fuc(a1-2)[GalNAc(a1-3)]Gal(b1-3)GlcNAc(b1-2)Man(a1-3)[Fuc(a1-2)[GalNAc(a1-3)]Gal(b1-3)GlcNAc(b1-2)Man(a1-6)]Man(b1-4)GlcNAc(b1-4)[Fuc(a1-6)]GlcNAc
# Outline: as §1
# [16] = target: Fuc(a1-2)[GalNAc(a1-3)]Gal(b1-3)GlcNAc(b1-3)GalNAc
# Outline: as §1
# [17] = target: Fuc(a1-2)[GalNAc(a1-3)]Gal(b1-3)GlcNAc(b1-6)GalNAc
# Outline: as §1
# [18] = target: Fuc(a1-2)[GalNAc(a1-3)]Gal(b1-4)Glc
# Outline: as §1
# [19] = target: Fuc(a1-2)[GalNAc(a1-3)]Gal(b1-4)GlcNAc
# Outline: as §1
# [20] = target: Fuc(a1-2)[GalNAc(a1-3)]Gal(b1-4)GlcNAc(b1-2)Man
# Outline: as §1
# [21] = target: Fuc(a1-2)[GalNAc(a1-3)]Gal(b1-4)GlcNAc(b1-2)Man(a1-3)[Fuc(a1-2)[GalNAc(a1-3)]Gal(b1-4)GlcNAc(b1-2)Man(a1-6)]Man(b1-4)GlcNAc(b1-4)GlcNAc
# Outline: as §1
# [22] = target: Fuc(a1-2)[GalNAc(a1-3)]Gal(b1-4)GlcNAc(b1-2)Man(a1-3)[Fuc(a1-2)[GalNAc(a1-3)]Gal(b1-4)GlcNAc(b1-2)Man(a1-6)]Man(b1-4)GlcNAc(b1-4)[Fuc(a1-6)]GlcNAc
# Outline: as §1
# [23] = target: Fuc(a1-2)[GalNAc(a1-3)]Gal(b1-4)GlcNAc(b1-3)Gal(b1-4)GlcNAc
# Outline: as §1
# [24] = target: Fuc(a1-2)[GalNAc(a1-3)]Gal(b1-4)GlcNAc(b1-3)Gal(b1-4)GlcNAc(b1-3)Gal(b1-4)GlcNAc
# Outline: as §1
# [25] = target: Fuc(a1-2)[GalNAc(a1-3)]Gal(b1-4)GlcNAc(b1-3)GalNAc
# Outline: as §1
# [26] = target: Fuc(a1-2)[GalNAc(a1-3)]Gal(b1-4)GlcNAc(b1-3)[Fuc(a1-2)[GalNAc(a1-3)]Gal(b1-4)GlcNAc(b1-6)]GalNAc
# Outline: as §1
# [27] = target: Fuc(a1-2)[GalNAc(a1-3)]Gal(b1-4)GlcNAc(b1-6)GalNAc
# Outline: as §1
# [28] = target: Fuc(a1-2)[GalNAc(a1-3)]Gal(b1-4)[Fuc(a1-3)]GlcNAc
# Outline: as §1
# [29] = target: Fuc(a1-2)[GalNAc(a1-3)]Gal(b1-4)[Fuc(a1-3)]GlcNAc(b1-3)GalNAc
# Outline: as §1
# [30] = target: Fuc(a1-2)[GalNAc(a1-4)]Gal(b1-4)GlcNAc
# Outline: as §1
# [31] = target: Fuc(a1-2)[GalNAc(b1-3)]Gal
# Outline: as §1
# Fuc(a1-3)GlcNAc = target: Fuc(a1-3)GlcNAc
# Outline: as §1
# [32] = target: Fuc(a1-3)[Gal(b1-4)]Glc6S
# Outline: as §1
# [33] = target: Fuc(a1-3)[Gal(b1-4)]GlcNAc
# Outline: as §1
# [34] = target: Fuc(a1-3)[Gal(b1-4)]GlcNAc(b1-2)Man
# Outline: as §1
# [35] = target: Fuc(a1-3)[Gal(b1-4)]GlcNAc(b1-2)Man(a1-3)[Fuc(a1-3)[Gal(b1-4)]GlcNAc(b1-2)Man(a1-6)]Man(b1-4)GlcNAc(b1-4)GlcNAc
# Outline: as §1
# [36] = target: Fuc(a1-3)[Gal(b1-4)]GlcNAc(b1-2)Man(a1-3)[Fuc(a1-3)[Gal(b1-4)]GlcNAc(b1-2)Man(a1-6)]Man(b1-4)GlcNAc(b1-4)[Fuc(a1-6)]GlcNAc
# Outline: as §1
# [37] = target: Fuc(a1-3)[Gal(b1-4)]GlcNAc(b1-3)Gal(b1-3)[Fuc(a1-4)]GlcNAc
# Outline: as §1
# [38] = target: Fuc(a1-3)[Gal(b1-4)]GlcNAc(b1-3)Gal(b1-4)[Fuc(a1-3)]GlcNAc
# Outline: as §1
# [39] = target: Fuc(a1-3)[Gal(b1-4)]GlcNAc(b1-3)Gal(b1-4)[Fuc(a1-3)]GlcNAc(b1-3)Gal(b1-4)[Fuc(a1-3)]GlcNAc
# Outline: as §1
# [40] = target: Fuc(a1-3)[Gal(b1-4)]GlcNAc(b1-3)GalNAc
# Outline: as §1
# [41] = target: Fuc(a1-3)[Gal(b1-4)]GlcNAc(b1-6)GalNAc
# Outline: as §1
# [42] = target: Fuc(a1-3)[Gal(b1-4)]GlcNAc(b1-6)[Gal(b1-3)GlcNAc(b1-3)]Gal(b1-4)Glc
# Outline: as §1
# [43] = target: Fuc(a1-3)[Gal(b1-4)]GlcNAc6S
# Outline: as §1
# [44] = target: Fuc(a1-3)[Gal3S(b1-4)]Glc
# Outline: as §1
# [45] = target: Fuc(a1-3)[Gal3S(b1-4)]GlcNAc
# Outline: as §1
# [46] = target: Fuc(a1-3)[Gal3S(b1-4)]GlcNAc6S
# Outline: as §1
# [47] = target: Fuc(a1-3)[GalNAc(b1-4)]GlcNAc
# Outline: as §1
# [48] = target: Fuc(a1-3)[GalNAc(b1-4)]GlcNAc6S
# Outline: as §1
# Fuc(a1-4)GlcNAc = target: Fuc(a1-4)GlcNAc
# Outline: as §1
# Fuc(b1-3)GlcNAc = target: Fuc(b1-3)GlcNAc
# Outline: as §1
# Gal(a1-2)Gal = target: Gal(a1-2)Gal
# Outline: as §1
# Gal(a1-3)Gal = target: Gal(a1-3)Gal
# Outline: as §1
# Gal(a1-3)Gal(b1-3)GlcNAc = target: Gal(a1-3)Gal(b1-3)GlcNAc
# Outline: as §1
# [49] = target: Gal(a1-3)Gal(b1-3)GlcNAc(b1-2)Man
# Outline: as §1
# [50] = target: Gal(a1-3)Gal(b1-3)GlcNAc(b1-2)Man(a1-3)[Gal(a1-3)Gal(b1-3)GlcNAc(b1-2)Man(a1-6)]Man(b1-4)GlcNAc(b1-4)GlcNAc
# Outline: as §1
# [51] = target: Gal(a1-3)Gal(b1-3)GlcNAc(b1-3)GalNAc
# Outline: as §1
# [52] = target: Gal(a1-3)Gal(b1-3)GlcNAc(b1-6)GalNAc
# Outline: as §1
# [53] = target: Gal(a1-3)Gal(b1-3)[Fuc(a1-4)]GlcNAc(b1-2)Man(a1-3)[Gal(a1-3)Gal(b1-3)[Fuc(a1-4)]GlcNAc(b1-2)Man(a1-6)]Man(b1-4)GlcNAc(b1-4)GlcNAc
# Outline: as §1
# Gal(a1-3)Gal(b1-4)Glc = target: Gal(a1-3)Gal(b1-4)Glc
# Outline: as §1
binder,measurement,setting,value
SP15308B-bot-339-22-339 (Bacteroides ovatus) (protein) NEWEDEQYEQYVSFKAPIASGSDGVTTIYVRYKDNGKVTYQLPIIVSGSTVNSQDRDIHIAVDKDTLKTLNIERFSLYRPELWYTEMEEDKYEFPETVHIPAGSCVELLNIDFNLQDIDMLEKWVLPLTIVDDGSYAYQSHPRKNYAKALLKVVPFNNYSGSYTASSMKVYTYINGKPDTNARTTDKRTGYVVDNNSIFFYAGLINEDMDKDMRKKYKINVHFKEDGTLDMKQDDPSNEMEFELIGTPTYSSTSVMDATRPYLERRYVQIMFEYDFQDFTYGGSGTEVIPIKYRVAGSMTLLRNINTQIPDEDQQIEW,glycan array binding signal (z-score),[1],0.699
same,glycan array binding signal (z-score),[2],0.241
same,glycan array binding signal (z-score),[3],-0.515
same,glycan array binding signal (z-score),[4],0.442
same,glycan array binding signal (z-score),[5],-0.332
same,glycan array binding signal (z-score),[6],-0.153
same,glycan array binding signal (z-score),[7],-0.171
same,glycan array binding signal (z-score),[8],0.522
same,glycan array binding signal (z-score),[9],-0.037
same,glycan array binding signal (z-score),[10],0.504
same,glycan array binding signal (z-score),[11],0.069
same,glycan array binding signal (z-score),[12],-0.502
same,glycan array binding signal (z-score),[13],-0.033
same,glycan array binding signal (z-score),[14],-0.48
same,glycan array binding signal (z-score),[15],-0.323
same,glycan array binding signal (z-score),[16],-0.03
same,glycan array binding signal (z-score),[17],-0.617
same,glycan array binding signal (z-score),[18],-0.333
same,glycan array binding signal (z-score),[19],-0.431
same,glycan array binding signal (z-score),[20],-0.453
same,glycan array binding signal (z-score),[21],0.668
same,glycan array binding signal (z-score),[22],-0.388
same,glycan array binding signal (z-score),[23],-0.369
same,glycan array binding signal (z-score),[24],-0.189
same,glycan array binding signal (z-score),[25],-0.7
same,glycan array binding signal (z-score),[26],-0.315
same,glycan array binding signal (z-score),[27],-0.88
same,glycan array binding signal (z-score),[28],0.129
same,glycan array binding signal (z-score),[29],0.347
same,glycan array binding signal (z-score),[30],0.551
same,glycan array binding signal (z-score),[31],0.15
same,glycan array binding signal (z-score),Fuc(a1-3)GlcNAc,0.062
same,glycan array binding signal (z-score),[32],-0.36
same,glycan array binding signal (z-score),[33],-0.242
same,glycan array binding signal (z-score),[34],-0.323
same,glycan array binding signal (z-score),[35],0.116
same,glycan array binding signal (z-score),[36],0.884
same,glycan array binding signal (z-score),[37],-0.457
same,glycan array binding signal (z-score),[38],0.466
same,glycan array binding signal (z-score),[39],0.298
same,glycan array binding signal (z-score),[40],0.021
same,glycan array binding signal (z-score),[41],-0.187
same,glycan array binding signal (z-score),[42],-0.092
same,glycan array binding signal (z-score),[43],0.238
same,glycan array binding signal (z-score),[44],0.045
same,glycan array binding signal (z-score),[45],0.466
same,glycan array binding signal (z-score),[46],-0.343
same,glycan array binding signal (z-score),[47],0.003
same,glycan array binding signal (z-score),[48],0.011
same,glycan array binding signal (z-score),Fuc(a1-4)GlcNAc,2.58
same,glycan array binding signal (z-score),Fuc(b1-3)GlcNAc,-0.077
same,glycan array binding signal (z-score),Gal(a1-2)Gal,0.317
same,glycan array binding signal (z-score),Gal(a1-3)Gal,0.449
same,glycan array binding signal (z-score),Gal(a1-3)Gal(b1-3)GlcNAc,-0.64
same,glycan array binding signal (z-score),[49],-0.132
same,glycan array binding signal (z-score),[50],0.713
same,glycan array binding signal (z-score),[51],-0.388
same,glycan array binding signal (z-score),[52],-0.361
same,glycan array binding signal (z-score),[53],0.312
same,glycan array binding signal (z-score),Gal(a1-3)Gal(b1-4)Glc,-0.248

# For reference, some entries already given.
binder,measurement,setting,value
SP15308B-bot-339-22-339 (Bacteroides ovatus) (protein) NEWEDEQYEQYVSFKAPIASGSDGVTTIYVRYKDNGKVTYQLPIIVSGSTVNSQDRDIHIAVDKDTLKTLNIERFSLYRPELWYTEMEEDKYEFPETVHIPAGSCVELLNIDFNLQDIDMLEKWVLPLTIVDDGSYAYQSHPRKNYAKALLKVVPFNNYSGSYTASSMKVYTYINGKPDTNARTTDKRTGYVVDNNSIFFYAGLINEDMDKDMRKKYKINVHFKEDGTLDMKQDDPSNEMEFELIGTPTYSSTSVMDATRPYLERRYVQIMFEYDFQDFTYGGSGTEVIPIKYRVAGSMTLLRNINTQIPDEDQQIEW,glycan array binding signal (z-score),Gal(a1-2)Gal,0.317
same,glycan array binding signal (z-score),Gal(a1-3)Gal,0.449
same,glycan array binding signal (z-score),Gal(a1-3)Gal(b1-3)GlcNAc,-0.64
